Data from PubChem BioAssay AID1347426 (Functional Genomics Laboratory (NCATS/FGL), 2020).
In all, about 31,000 sequences went through this assay and about 1,400 (4.5%) were called active.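 How the source made its calls: active means median seed-adjusted z-score above 1 or below -1; inactive means the rest.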 Some of the results follow.

test: Novel Modifiers of Survival Motor Neuron (SMN) Protein: Gene Identification via Genome-wide siRNA Screen; details: HEK293T SMN2-luciferase reporter, siRNA knockdown, 72 h; actives lie on both sides;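 further: luminescence tracks full-length SMN protein made from the SMN2 reporter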
Procedure, shortened: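 siRNA screen, 10418 genes ×3 siRNAs; 1 pmol/well, lipid reverse transfection into HEK293T SMN2-luc reporter line. 72 h, 37 °C, 5% CO2; ONE-Glo readout. Data: neg-ctrl normalized, log10, MAD; hit = MAD >1.0 or < -1.0.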

Sequence	median seed-adjusted z-score
GCCUCAUCUUCCGAGAAGATT against AMH	inactive: -0.255
CAUCAUUAAUGGUUAUGGATT against LRRTM2	inactive: 0.508
GCAUUACGGAGAACGUGAATT against MCF2L	inactive: -0.624
GGUUAUUGCACAGCGAUUATT against DLAT	inactive: 0
GGAAGCUUGUGAUUGGCUATT against DLC1	inactive: -0.0296
UGUCCACGGUUAAAAUUAUTT against CCL16	inactive: -0.308
GACAGUUCUUAAAACACCATT against ZNF500	inactive: 0
CCAGGUGAAGAGUCGAAAATT against PSKH2	inactive: 0.0439
ACAUCGAAGAGAUUUGUCATT against ADRBK1	inactive: 0
GAGUUAAAGAGGGUAUAGATT against WFDC12	inactive: 0
GUAGUCCUGUGAAACCGAUTT against RFXDC2	inactive: 0.724
GAUACGUCCUCAAGACGGATT against B3GALT4	inactive: 0.233
GGAGGACACGGGAAGCUAUTT against SIGLEC5	inactive: -0.615
CGCUUACAAGGUCAACAUUTT against S1PR3	inactive: -0.0931
GGAUUUUGCGUAUAGCUCUTT against ZNF285A	inactive: 0.148
GCAUUUCGCCUGACCAUUATT against SENP1	inactive: 0.625
CCUACGUUCCUUCCACUUUTT against GABRP	inactive: -0.441
GACUGACGGUUUUAGUCUUTT against CAPNS2	inactive: 0.529
GGAGCUUCUUGGAUGCCUUTT against KCNK6	inactive: -0.199
CCAACUAUUUCAUCGUGAATT against ADRA1D	inactive: -0.18
CACAGACCGAGGAGAAAGATT against CRLF2	inactive: 0.218
GAAUGAAGGUUUAUAUUGATT against EPHB3	inactive: -0.407
GGAUCAUCAGACAAUUUUUTT against TMPRSS7	inactive: 0.0269

2 consecutive records out of the list so far, quoted:
Sequence	median seed-adjusted z-score
CAUCAUUAAUGGUUAUGGATT against LRRTM2	inactive: 0.508
GCAUUACGGAGAACGUGAATT against MCF2L	inactive: -0.624

Next part:

Sequence	median seed-adjusted z-score
GGCUUAUUAUUGUGACCAUTT against PREB	inactive: 0.182
GCAUGGAAGUGUACGAGUATT against THBS3	inactive: 0.429
CUAUCGACAUCAAGAGUUUTT against PSPC1	inactive: 0.0612
GAAGAUUCCUGAACGAGGATT against SELP	inactive: -0.879
AGGACGUGGUGGUAUUAGATT against AGXT2L2	inactive: -0.0495
AUCUACUGCUUUUACGUCUTT against PIGQ	inactive: 0.00996
GUGAUAAUCCUGAGAGAUATT against EDNRA	inactive: 0.133
GCAUAGAUCCUGUUUCGUATT against OSBPL2	inactive: 0
GGAUGUUCGUUCCUACAUUTT against LCT	inactive: 0.411
GCGAUUCUAUGUGCGAGUATT against CABIN1	inactive: -0.446
CUACAGCGGAGGGAACAAATT against ABCA7	inactive: -0.711
CAACCAUAGUUAAAGUUAATT against TCP1	active: -1.02
GCAGCUUACAGAUUCGCUATT against MLLT10	inactive: -0.147
GGAGGAUCCCAUUAUACUATT against LPA	inactive: -0.321
GGAACAAAGUCUCACAGAUTT against ZKSCAN1	inactive: 0.229
CACUGAGUAUAGAACGGAATT against PTPRJ	inactive: 0.0522
CCCAUACUGUUACCCAUAATT against CHAC1	inactive: 0.517
CUUCAUGACUGGACCCUCATT against AGFG2	inactive: -0.289
ACCUGGUGUUUGUAGGCAATT against DNAL1	inactive: 0.866
GCUAUGCUAUCAAGAAUAUTT against DNM1	inactive: 0.217
ACGAGUUUCUGGACAAGUUTT against CHST12	inactive: 0
CUAUUCUAAUGCCUACUUUTT against SEMA5A	inactive: -0.443
UAACCCAUGUUUUACCUUUTT against ADH1A	inactive: 0.624

Some of the entries above, set out differently.
Sequence | median seed-adjusted z-score
CUAUUCUAAUGCCUACUUUTT against SEMA5A | inactive: -0.443
UAACCCAUGUUUUACCUUUTT against ADH1A | inactive: 0.624

The list continues.

Sequence	median seed-adjusted z-score
GGUCAUUGCCCGAACAAUATT against BNC1	inactive: -0.631
CAUCUGACCCUAACUGAAATT against ZMYND10	inactive: 0.255
CCUGAUCCACGAGAAGUCATT against SPATA20	inactive: 0
CCAGUCGCGUAAGACAACATT against PYDC1	active: -1.44
CAACAUCCACGGAGAUUGATT against BTBD2	inactive: 0.0303
GAAAAGAUUUCGUCCUCAATT against FOXF2	inactive: -0.608
CCAUCCUGUUUGUCACCUATT against HHATL	inactive: 0.497
GGCUAUACAUGGAUAGCAATT against SLITRK1	inactive: 0.215
GAUGGUGGAUGCUUCCAAATT against DTYMK	inactive: -0.191
GGACGGGAACUACUUUGAATT against PDLIM3	inactive: -0.297
GAGAGAAUCAUUACGAAAATT against MTMR2	inactive: 0.495
CCUCAACACCUUACACUAATT against SMARCC2	inactive: 0.0684
GCUGGGACCUAACAGGAUATT against ATP10B	inactive: 0.51
CAGAGGCAGUGAUAGAACATT against BHMT2	inactive: -0.0704
GAACAAGUAGAGAAGAACATT against CLTB	inactive: 0.319
CCAGGAACCCGUCUCUCAATT against ATP5G1	inactive: -0.311
GCGAUGCGGAAGAAGCUAATT against NCOR2	inactive: -0.305
UCAUAGCAAAGAGAAGAUATT against HAVCR2	inactive: 0.205
CGAUAGACAGUAGACGAAUTT against RB1CC1	inactive: 0.0878
CUCCCAUGAUGGCAUCUUATT against HSPB2	inactive: 0.247
GGGUAAGCCCUUUAAAGGATT against ZNF594	inactive: 0.491
GACUCCCAUUUGAGACUUUTT against ZMAT1	inactive: -0.123
GUAUGAAAUUGAAACGGAUTT against KCNC2	inactive: 0.3
